Publication PMC5411712
Results are given in words; binding and its absence hold for the method and conditions named. For some assays here: Binding seen in cells or lysates may run through a third protein. Some binding calls cover weakened binding; strength is not graded here. For some assays here: Tags and fused reporters may be left off the sequences shown. Blank lines part the entries; values can stand above or below the binder they belong to.

The chains behind the UniProt entries cited, without tags or fusion partners.
UniProt P60484: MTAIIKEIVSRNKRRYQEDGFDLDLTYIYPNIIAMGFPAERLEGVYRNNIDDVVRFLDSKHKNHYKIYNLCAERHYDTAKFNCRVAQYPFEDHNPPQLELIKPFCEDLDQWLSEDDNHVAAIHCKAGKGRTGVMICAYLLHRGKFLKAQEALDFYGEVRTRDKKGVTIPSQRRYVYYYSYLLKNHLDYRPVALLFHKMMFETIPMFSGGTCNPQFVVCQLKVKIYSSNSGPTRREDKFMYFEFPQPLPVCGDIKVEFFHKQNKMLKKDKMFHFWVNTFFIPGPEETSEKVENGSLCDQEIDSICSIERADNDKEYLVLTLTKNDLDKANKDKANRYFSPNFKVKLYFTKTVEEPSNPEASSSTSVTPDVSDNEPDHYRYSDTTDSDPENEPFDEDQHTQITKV
UniProt O08586: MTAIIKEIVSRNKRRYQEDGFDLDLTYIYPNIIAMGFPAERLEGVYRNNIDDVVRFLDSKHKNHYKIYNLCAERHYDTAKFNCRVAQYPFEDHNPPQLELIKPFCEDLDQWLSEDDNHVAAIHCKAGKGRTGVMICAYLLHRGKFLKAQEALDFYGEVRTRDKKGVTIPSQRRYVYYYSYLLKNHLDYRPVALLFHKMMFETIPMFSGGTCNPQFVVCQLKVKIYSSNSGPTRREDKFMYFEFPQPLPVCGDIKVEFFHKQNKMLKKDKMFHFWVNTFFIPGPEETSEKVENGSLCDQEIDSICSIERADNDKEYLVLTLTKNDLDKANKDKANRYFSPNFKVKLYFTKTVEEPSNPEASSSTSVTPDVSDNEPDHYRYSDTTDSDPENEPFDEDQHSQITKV

What was measured:
[1] = target: PTEN, endogenous in human aortic smooth muscle cells (human (endogenous in human aortic SMCs)) (UniProt P60484); assay: co-IP; endogenous proteins in whole cell lysates (mPER buffer) of cultured human or rat aortic SMCs serum-restricted 48 h; IP with anti-PTEN, anti-SRF, anti-myocardin or anti-Elk-1 and protein A-Sepharose, 16-18 h 4 °C; immunoblot; non-specific IgG as control; in SMCs with PTEN shRNA (Fig. 4c) less SRF with myocardin
recombinant His6-PTEN = recombinant His6-PTEN (UniProt P60484); assay: co-IP; in vitro: purified recombinant PTEN and SRF incubated together in Tris buffer (10 mM Tris-HCl pH 8.0, 100 mM NaCl, 10% glycerol, 2 mM MgCl2, 1 mM EDTA, 1 mM DTT, 100 ug/ml BSA); IP with anti-PTEN or anti-SRF 16-18 h 4 °C, protein A-Sepharose; immunoblot; both purified
[2] = target: T1, myocardin, endogenous in smooth muscle cells (rat (endogenous in rat aortic SMCs)), Q8R5I7; assay: co-IP; endogenous proteins in whole cell lysates (mPER buffer) of cultured human or rat aortic SMCs serum-restricted 48 h; IP with anti-PTEN, anti-SRF, anti-myocardin or anti-Elk-1 and protein A-Sepharose, 16-18 h 4 °C; immunoblot; non-specific IgG as control; in SMCs with PTEN shRNA (Fig. 4c) less SRF with myocardin; conditions: remark: other sources report otherwise
T1 chain: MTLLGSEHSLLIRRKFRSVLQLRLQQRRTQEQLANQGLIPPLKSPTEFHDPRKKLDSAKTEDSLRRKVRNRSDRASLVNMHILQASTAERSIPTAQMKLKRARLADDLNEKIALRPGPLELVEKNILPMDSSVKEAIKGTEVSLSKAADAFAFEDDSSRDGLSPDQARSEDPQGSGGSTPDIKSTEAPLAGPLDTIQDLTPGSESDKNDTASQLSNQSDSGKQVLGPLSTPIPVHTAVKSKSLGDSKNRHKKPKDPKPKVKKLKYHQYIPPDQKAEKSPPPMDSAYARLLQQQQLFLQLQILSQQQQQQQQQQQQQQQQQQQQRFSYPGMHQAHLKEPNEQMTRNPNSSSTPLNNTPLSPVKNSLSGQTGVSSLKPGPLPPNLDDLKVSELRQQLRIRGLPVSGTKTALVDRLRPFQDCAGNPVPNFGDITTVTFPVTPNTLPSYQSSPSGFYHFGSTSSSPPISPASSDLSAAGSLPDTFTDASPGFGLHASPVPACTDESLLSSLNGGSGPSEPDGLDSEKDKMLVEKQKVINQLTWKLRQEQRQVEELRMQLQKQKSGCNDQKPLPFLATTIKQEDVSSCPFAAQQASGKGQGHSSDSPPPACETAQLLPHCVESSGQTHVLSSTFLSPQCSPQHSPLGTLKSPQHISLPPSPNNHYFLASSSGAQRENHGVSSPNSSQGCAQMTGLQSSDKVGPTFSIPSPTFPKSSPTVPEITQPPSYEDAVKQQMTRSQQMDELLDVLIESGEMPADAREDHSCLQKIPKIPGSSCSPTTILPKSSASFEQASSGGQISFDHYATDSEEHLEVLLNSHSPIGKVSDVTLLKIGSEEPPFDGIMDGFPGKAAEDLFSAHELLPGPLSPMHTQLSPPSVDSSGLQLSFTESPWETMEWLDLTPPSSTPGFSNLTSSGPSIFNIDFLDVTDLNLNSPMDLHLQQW

[3] = target: PTEN, endogenous in mouse cells and tissue (mouse (endogenous in L929 fibroblasts and mouse aortic media)) (UniProt O08586); assay: co-IP; whole cell lysates of smooth muscle-rich aortic media of wild-type mice; PTEN immunoprecipitated, SRF immunoblotted
[4] = target: PTEN, endogenous in mouse cells and tissue (mouse (endogenous in L929 fibroblasts and mouse aortic media)) (UniProt O08586); assay: co-IP; L929 fibroblasts; SRF immunoprecipitated with PTEN

- binding [1]: binds
B1: serum response factor (SRF), endogenous in human aortic smooth muscle cells (protein, UniProt P11831 1-508)
chain: MLPTQAGAAAALGRGSALGGSLNRTPTGRPGGGGGTRGANGGRVPGNGAGLGPGRLEREAAAAAATTPAPTAGALYSGSEGDSESGEEEELGAERRGLKRSLSEMEIGMVVGGPEASAAATGGYGPVSGAVSGAKPGKKTRGRVKIKMEFIDNKLRRYTTFSKRKTGIMKKAYELSTLTGTQVLLLVASETGHVYTFATRKLQPMITSETGKALIQTCLNSPDSPPRSDPTTDQRMSATGFEETDLTYQVSESDSSGETKDTLKPAFTVTNLPGTTSTIQTAPSTSTTMQVSSGPSFPITNYLAPVSASVSPSAVSSANGTVLKSTGSGPVSSGGLMQLPTSFTLMPGGAVAQQVPVQAIQVHQAPQQASPSRDSSTDLTQTSSSGTVTLPATIMTSSVPTTVGGHMMYPSPHAVMYAPTSGLGDGSLTVLNAFSQAPSTMQVSHSQVQEPGGVPQVFLTASSGTVQIPVSAVQLHQMAVIGQQAGSSSNLTELQVVNLDTAHSTKSE

- binding (recombinant His6-PTEN): binds
B2: recombinant SRF made as GST–SRF (protein, UniProt P11831 1-508)
chain: MLPTQAGAAAALGRGSALGGSLNRTPTGRPGGGGGTRGANGGRVPGNGAGLGPGRLEREAAAAAATTPAPTAGALYSGSEGDSESGEEEELGAERRGLKRSLSEMEIGMVVGGPEASAAATGGYGPVSGAVSGAKPGKKTRGRVKIKMEFIDNKLRRYTTFSKRKTGIMKKAYELSTLTGTQVLLLVASETGHVYTFATRKLQPMITSETGKALIQTCLNSPDSPPRSDPTTDQRMSATGFEETDLTYQVSESDSSGETKDTLKPAFTVTNLPGTTSTIQTAPSTSTTMQVSSGPSFPITNYLAPVSASVSPSAVSSANGTVLKSTGSGPVSSGGLMQLPTSFTLMPGGAVAQQVPVQAIQVHQAPQQASPSRDSSTDLTQTSSSGTVTLPATIMTSSVPTTVGGHMMYPSPHAVMYAPTSGLGDGSLTVLNAFSQAPSTMQVSHSQVQEPGGVPQVFLTASSGTVQIPVSAVQLHQMAVIGQQAGSSSNLTELQVVNLDTAHSTKSE

- binding [2]: binds
B3: serum response factor (SRF), endogenous in rat cells, D3ZHH8 1-504 (protein)
chain: MLPSQAGAAAALGRGSALGGSLNRTPTGRPGGSGGTRGANGGRVPGNGAGLGPGRLEREAAAAAAPTAGALYSGSEGDSESGEEEELGAERRGLKRSLSEMELGVVVGGPEAAAAAAGGYGPVSGAVSGAKPGKKTRGRVKIKMEFIDNKLRRYTTFSKRKTGIMKKAYELSTLTGTQVLLLVASETGHVYTFATRKLQPMITSETGKALIQTCLNSPDSPPRSDPSTDQRMSATGFEEPDLTYQVSESDSSGETKDTLKPAFTVTNLPGTTSTIQTAPSTSTTMQVSSGPSFPITNYLAPVSASVSPSAVSSANGTVLKSTGSGPVSSGGLMQLPTSFTLMPGGAVAQQVPVQAIHVHQAPQQASPSRDSSTDLTQTSSSGTVTLPATIMTSSVPTTVGGHMMYPSPHAVMYAPTSGLADGSLTVLNAFSQAPSTMQVSHSQVQEPGGVPQVFLTAPSGTVQIPVSAVQLHQMAVIGQQAGSSSNLTELQVVNLDATHSTKSE

- binding [3]: binds
- binding [4]: binds
B4: serum response factor (SRF), endogenous in mouse cells and tissue (protein, UniProt Q9JM73 1-504)
chain: MLPSQAGAAAALGRGSALGGNLNRTPTGRPGGGGGTRGANGGRVPGNGAGLGQSRLEREAAAAAAPTAGALYSGSEGDSESGEEEELGAERRGLKRSLSEMELGVVVGGPEAAAAAAGGYGPVSGAVSGAKPGKKTRGRVKIKMEFIDNKLRRYTTFSKRKTGIMKKAYELSTLTGTQVLLLVASETGHVYTFATRKLQPMITSETGKALIQTCLNSPDSPPRSDPTTDQRMSATGFEEPDLTYQVSESDSSGETKDTLKPAFTVTNLPGTTSTIQTAPSTSTTMQVSSGPSFPITNYLAPVSASVSPSAVSSANGTVLKSTGSGPVSSGGLMQLPTSFTLMPGGAVAQQVPVQAIHVHQAPQQASPSRDSSTDLTQTSSSGTVTLPATIMTSSVPTTVGGHMMYPSPHAVMYAPTSGLADGSLTVLNAFSQAPSTMQVSHSQVQEPGGVPQVFLTAPSGTVQIPVSAVQLHQMAVIGQQAGSSSNLTELQVVNLDATHSTKSE
